The structures given here were assigned with low confidence; some may be wrong.
Experiments:
Recombinant JAK1 = Recombinant JAK1 (Homo sapiens, UniProt P23458); assay: JAK biochemical assay (LANCE Ultra TR-FRET), JAK1; conditions: read-out: Biochemical Assay (μM) JAK1
Recombinant TYK2 = Recombinant TYK2 (Homo sapiens, UniProt P29597); assay: JAK biochemical assay (LANCE Ultra TR-FRET), TYK2; conditions: read-out: Biochemical Assay (μM) TYK2
Recombinant JAK2 = Recombinant JAK2 (Homo sapiens, UniProt O60674); assay: JAK biochemical assay (LANCE Ultra TR-FRET), JAK2; conditions: read-out: Biochemical Assay (μM) JAK2
Recombinant JAK3 = Recombinant JAK3 (Homo sapiens, UniProt P52333); assay: JAK biochemical assay (LANCE Ultra TR-FRET), JAK3; conditions: read-out: Biochemical Assay (μM) JAK3
[1] = test system: STAT3 phosphorylation by IL-6 in TF-1 cells; assay: JAK cellular assay: STAT3 phosphorylation by IL-6 in TF-1 cells (HTRF); conditions: read-out: Cell Based Assay (μM) TF-1/IL-6/pSTAT3, IL-6 30 ng/ml
[2] = test system: STAT5 phosphorylation by IL-2 in HT-2 cells; assay: STAT5 phosphorylation by IL-2 in HT-2 cells (HTRF); conditions: read-out: Cell Based Assay (μM) HT-2/IL-2/pSTAT5, IL-2 50 U/ml
[3] = test system: STAT5 phosphorylation by GMCSF in TF-1 cells; assay: JAK cellular assay: STAT5 phosphorylation by GMCSF in TF-1 cells (HTRF); conditions: read-out: Cell Based Assay (μM) TF-1/GMCSF/pSTAT5, GMCSF 5 ng/ml

Amino acid sequences for entries named in this document (tags omitted).
UniProt P23458, whole entry: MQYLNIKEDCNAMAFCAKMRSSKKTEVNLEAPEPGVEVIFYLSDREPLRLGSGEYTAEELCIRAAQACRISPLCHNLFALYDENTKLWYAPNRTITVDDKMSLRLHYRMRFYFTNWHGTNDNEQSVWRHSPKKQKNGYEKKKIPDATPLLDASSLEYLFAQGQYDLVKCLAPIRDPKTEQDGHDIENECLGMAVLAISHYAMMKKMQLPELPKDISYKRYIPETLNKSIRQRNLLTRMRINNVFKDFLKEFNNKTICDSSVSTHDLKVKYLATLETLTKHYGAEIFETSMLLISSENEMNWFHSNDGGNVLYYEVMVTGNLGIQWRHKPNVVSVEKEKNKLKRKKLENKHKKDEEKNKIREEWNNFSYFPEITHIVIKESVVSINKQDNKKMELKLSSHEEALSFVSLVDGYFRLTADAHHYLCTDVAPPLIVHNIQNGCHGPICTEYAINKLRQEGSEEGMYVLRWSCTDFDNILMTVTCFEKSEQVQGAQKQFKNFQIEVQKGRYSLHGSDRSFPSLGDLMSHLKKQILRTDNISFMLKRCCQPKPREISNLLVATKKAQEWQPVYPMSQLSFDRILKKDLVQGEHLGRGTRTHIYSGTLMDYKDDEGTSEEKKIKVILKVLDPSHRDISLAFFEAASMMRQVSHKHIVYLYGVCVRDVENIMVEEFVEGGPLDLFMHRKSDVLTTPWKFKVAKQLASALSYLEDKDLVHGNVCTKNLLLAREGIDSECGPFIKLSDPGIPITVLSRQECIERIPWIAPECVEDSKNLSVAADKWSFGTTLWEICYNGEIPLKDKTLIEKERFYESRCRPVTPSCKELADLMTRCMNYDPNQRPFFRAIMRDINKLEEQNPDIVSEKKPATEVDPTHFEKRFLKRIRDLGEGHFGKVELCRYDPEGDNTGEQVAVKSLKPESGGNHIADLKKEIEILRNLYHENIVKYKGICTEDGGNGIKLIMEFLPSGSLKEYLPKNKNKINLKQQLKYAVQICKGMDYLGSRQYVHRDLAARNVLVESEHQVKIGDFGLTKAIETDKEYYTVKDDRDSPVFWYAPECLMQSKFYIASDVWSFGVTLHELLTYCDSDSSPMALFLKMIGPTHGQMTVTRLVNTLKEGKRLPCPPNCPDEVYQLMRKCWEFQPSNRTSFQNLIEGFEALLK
UniProt P29597, whole entry: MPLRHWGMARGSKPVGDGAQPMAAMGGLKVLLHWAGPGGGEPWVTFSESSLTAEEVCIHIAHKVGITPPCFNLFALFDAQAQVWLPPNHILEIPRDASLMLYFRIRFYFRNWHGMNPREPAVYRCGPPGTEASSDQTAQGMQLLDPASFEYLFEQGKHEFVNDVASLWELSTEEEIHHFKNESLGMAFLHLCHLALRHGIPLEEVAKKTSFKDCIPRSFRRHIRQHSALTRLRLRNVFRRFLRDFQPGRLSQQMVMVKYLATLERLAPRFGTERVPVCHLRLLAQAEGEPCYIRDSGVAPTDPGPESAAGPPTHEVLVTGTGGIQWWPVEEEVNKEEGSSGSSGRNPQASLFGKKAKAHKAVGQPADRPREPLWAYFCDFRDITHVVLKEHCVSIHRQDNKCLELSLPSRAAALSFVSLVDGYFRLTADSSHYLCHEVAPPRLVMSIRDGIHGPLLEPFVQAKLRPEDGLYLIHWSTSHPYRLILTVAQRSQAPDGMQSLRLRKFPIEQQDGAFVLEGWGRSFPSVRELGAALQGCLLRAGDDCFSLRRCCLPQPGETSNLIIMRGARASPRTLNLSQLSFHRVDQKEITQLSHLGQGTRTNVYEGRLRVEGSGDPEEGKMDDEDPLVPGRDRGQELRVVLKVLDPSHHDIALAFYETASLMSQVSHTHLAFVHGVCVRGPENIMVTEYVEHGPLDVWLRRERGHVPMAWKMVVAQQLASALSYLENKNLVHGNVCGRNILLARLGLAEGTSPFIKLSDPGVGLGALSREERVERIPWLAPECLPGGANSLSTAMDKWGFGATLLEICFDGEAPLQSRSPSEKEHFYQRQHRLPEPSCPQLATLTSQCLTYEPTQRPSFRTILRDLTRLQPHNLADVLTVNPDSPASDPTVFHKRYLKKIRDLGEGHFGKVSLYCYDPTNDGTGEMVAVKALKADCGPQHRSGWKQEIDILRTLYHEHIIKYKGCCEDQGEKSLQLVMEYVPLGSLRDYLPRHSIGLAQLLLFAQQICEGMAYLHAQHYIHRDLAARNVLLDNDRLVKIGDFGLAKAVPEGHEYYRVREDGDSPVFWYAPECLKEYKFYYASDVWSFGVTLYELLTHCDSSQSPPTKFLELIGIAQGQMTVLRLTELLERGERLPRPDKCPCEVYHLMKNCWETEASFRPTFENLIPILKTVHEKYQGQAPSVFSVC
UniProt O60674, whole entry: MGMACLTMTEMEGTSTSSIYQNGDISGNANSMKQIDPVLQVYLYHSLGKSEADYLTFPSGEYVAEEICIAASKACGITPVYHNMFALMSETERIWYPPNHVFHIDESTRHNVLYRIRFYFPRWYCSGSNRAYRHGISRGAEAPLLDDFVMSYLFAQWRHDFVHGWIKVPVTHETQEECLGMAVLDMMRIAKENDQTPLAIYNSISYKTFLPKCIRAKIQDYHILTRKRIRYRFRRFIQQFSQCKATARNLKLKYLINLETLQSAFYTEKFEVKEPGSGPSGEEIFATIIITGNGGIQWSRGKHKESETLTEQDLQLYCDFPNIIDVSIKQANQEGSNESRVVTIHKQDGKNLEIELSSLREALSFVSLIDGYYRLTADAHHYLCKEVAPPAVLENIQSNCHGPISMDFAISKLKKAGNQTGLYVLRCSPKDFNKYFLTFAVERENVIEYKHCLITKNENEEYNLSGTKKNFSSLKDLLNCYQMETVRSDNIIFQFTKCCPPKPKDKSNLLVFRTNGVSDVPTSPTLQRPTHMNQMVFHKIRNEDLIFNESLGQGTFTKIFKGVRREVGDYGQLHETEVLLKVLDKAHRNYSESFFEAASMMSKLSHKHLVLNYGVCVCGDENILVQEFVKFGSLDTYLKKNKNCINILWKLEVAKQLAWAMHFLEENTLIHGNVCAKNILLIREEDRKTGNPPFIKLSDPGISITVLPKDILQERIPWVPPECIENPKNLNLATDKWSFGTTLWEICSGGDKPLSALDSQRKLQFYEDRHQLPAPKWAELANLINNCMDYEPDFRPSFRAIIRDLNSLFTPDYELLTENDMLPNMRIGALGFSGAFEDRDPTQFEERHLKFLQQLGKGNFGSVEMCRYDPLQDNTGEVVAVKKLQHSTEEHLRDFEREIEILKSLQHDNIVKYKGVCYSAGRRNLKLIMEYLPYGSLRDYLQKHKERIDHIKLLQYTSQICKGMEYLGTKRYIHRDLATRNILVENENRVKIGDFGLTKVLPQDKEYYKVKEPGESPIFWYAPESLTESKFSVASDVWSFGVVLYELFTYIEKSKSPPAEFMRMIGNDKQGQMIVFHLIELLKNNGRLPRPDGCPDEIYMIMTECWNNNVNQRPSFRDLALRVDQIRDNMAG
UniProt P52333, whole entry: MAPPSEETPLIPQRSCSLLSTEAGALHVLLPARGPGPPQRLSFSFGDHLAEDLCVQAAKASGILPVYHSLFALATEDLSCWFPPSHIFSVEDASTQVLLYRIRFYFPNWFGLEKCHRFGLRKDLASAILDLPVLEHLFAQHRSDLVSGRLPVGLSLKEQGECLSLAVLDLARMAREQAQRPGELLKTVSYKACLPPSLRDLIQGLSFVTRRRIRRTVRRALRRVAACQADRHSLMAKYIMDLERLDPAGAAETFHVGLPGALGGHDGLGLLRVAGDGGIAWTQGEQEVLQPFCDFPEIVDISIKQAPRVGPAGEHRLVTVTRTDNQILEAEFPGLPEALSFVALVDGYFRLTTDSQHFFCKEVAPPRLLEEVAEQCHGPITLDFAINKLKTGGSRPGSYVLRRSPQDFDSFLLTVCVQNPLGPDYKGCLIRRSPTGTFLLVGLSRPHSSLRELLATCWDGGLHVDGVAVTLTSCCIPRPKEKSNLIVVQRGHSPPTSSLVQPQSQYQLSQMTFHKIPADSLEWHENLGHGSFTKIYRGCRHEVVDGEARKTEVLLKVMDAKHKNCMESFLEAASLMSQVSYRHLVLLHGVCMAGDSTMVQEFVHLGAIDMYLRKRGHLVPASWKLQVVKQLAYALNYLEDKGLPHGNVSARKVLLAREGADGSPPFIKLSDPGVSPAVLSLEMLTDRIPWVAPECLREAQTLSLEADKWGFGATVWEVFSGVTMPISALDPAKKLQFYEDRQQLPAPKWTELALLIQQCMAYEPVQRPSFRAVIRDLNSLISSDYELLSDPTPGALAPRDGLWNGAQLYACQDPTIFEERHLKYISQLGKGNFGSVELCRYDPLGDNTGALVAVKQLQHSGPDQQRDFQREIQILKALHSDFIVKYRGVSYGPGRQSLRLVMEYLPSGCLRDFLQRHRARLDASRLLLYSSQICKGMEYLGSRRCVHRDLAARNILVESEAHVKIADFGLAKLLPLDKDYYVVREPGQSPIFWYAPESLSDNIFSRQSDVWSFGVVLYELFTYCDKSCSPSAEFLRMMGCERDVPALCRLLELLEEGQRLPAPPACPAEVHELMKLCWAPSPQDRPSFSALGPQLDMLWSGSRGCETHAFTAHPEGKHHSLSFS

SMILES | IC50 (Recombinant JAK1) [µM] | IC50 (Recombinant TYK2) [µM] | IC50 (Recombinant JAK2) [µM] | IC50 (Recombinant JAK3) [µM] | IC50 [1] [µM] | IC50 [2] [µM] | IC50 [3] [µM]
O=C(NCC(F)(F)F)C(O)c1ccc(-n2cc(-c3ccnc4[nH]cnc34)cn2)nc1 (centres unmarked) | > 0.5 | > 1 | > 1 | > 0.5 |  |  | 
O=C(NC1CC1)NC(c1ccc(-n2cc(-c3ccnc4[nH]cnc34)cn2)nc1)C(F)(F)F (centres unmarked) [Example 1178, 1-(1-(6-(4-(3H-imidazo[4,5-b]pyridin-7-yl)-1H-Pyrazol-1-yl)pyridin-3-yl)-2,2,2-trifluoroethyl)-3-cyclopropylurea] | < 0.1 | < 0.1 | < 0.1 | < 0.1 | > 0.1 | > 0.1 | > 0.1

From patent US12516056B2, “Compounds for inhibition of janus kinase 1” (MANKIND PHARMA LTD., priority 2019, dated 2026)
